These are yes or no findings as the source states them, for the method shown. In cells and extracts the contact can be indirect. Some binding calls cover weakened binding; strength is not graded here.

Amino acid sequences for entries named in this document (tags omitted). A change or cut given only in a name is not applied to a line headed by its entry. Chains listed by the source or under a name are the forms on record and can include a tag or linker.
KIT K642E mutant oncoprotein (GIST882 cells) (human (endogenous in GIST882)) (P10721, form named): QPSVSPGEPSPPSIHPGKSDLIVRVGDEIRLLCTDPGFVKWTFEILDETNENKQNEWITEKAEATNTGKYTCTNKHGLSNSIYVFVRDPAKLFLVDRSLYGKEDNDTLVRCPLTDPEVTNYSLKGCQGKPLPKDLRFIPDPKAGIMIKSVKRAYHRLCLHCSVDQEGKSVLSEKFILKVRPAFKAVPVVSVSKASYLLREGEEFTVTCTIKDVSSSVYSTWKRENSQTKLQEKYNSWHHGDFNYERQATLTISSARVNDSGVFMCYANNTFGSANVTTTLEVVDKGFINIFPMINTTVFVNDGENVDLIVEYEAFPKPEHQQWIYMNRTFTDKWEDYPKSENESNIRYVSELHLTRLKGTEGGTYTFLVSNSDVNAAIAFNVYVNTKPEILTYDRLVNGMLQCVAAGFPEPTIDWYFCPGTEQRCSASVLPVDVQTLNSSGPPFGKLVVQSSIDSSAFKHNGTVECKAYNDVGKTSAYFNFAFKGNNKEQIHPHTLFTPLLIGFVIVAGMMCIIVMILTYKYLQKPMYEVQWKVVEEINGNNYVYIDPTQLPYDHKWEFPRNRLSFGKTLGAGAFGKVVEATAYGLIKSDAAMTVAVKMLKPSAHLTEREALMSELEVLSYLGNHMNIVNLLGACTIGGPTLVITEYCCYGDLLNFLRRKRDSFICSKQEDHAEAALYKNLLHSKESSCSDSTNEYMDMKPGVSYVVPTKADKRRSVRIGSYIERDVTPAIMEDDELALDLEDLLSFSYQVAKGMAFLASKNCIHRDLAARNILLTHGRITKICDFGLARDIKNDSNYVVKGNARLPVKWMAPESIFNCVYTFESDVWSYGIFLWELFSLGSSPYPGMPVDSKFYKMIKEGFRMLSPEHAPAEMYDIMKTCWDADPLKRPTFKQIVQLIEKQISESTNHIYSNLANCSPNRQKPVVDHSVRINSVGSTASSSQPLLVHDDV

The record followed here is article PMC7000686.

For assay [1], the target named is T1, CDC37 (cell division cycle 37) (human (endogenous in GIST882 and GIST430/654)) (UniProt Q16543).
T1 sequence: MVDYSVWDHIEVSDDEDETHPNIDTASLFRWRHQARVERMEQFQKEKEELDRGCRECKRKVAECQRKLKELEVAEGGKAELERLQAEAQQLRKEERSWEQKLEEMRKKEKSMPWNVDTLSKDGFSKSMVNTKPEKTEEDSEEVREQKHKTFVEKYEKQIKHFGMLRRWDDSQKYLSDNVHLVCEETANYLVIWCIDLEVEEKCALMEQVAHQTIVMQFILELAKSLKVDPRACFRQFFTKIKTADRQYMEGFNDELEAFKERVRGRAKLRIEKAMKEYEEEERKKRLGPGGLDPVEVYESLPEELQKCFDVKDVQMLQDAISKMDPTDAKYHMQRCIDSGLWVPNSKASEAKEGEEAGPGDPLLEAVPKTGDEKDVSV
Kind of assay: co-IP; endogenous KIT or CDC37 precipitated with mouse monoclonal antibody and protein G beads from 1 mg lysate (1% NP-40 IP buffer, 4 °C) of GIST882 and GIST430/654 cells treated with DMSO for 6 h in serum-free medium; immunoblot for HSP90, KIT and CDC37. A general note: Immunoblotting shows a protein as a band on a membrane.

Assay [2] deals with KIT K642E mutant oncoprotein (GIST882 cells) (human (endogenous in GIST882)) (UniProt P10721). The assay is described as above.

Turning to “KIT K642E mutant oncoprotein (GIST882 cells) (from UniProt P10721 26-976) (receptor)”, the binding result in assay [1] is given as “binds”.

B1: CDC37 (cell division cycle 37) (protein, UniProt Q16543 1-378)
chain: MVDYSVWDHIEVSDDEDETHPNIDTASLFRWRHQARVERMEQFQKEKEELDRGCRECKRKVAECQRKLKELEVAEGGKAELERLQAEAQQLRKEERSWEQKLEEMRKKEKSMPWNVDTLSKDGFSKSMVNTKPEKTEEDSEEVREQKHKTFVEKYEKQIKHFGMLRRWDDSQKYLSDNVHLVCEETANYLVIWCIDLEVEEKCALMEQVAHQTIVMQFILELAKSLKVDPRACFRQFFTKIKTADRQYMEGFNDELEAFKERVRGRAKLRIEKAMKEYEEEERKKRLGPGGLDPVEVYESLPEELQKCFDVKDVQMLQDAISKMDPTDAKYHMQRCIDSGLWVPNSKASEAKEGEEAGPGDPLLEAVPKTGDEKDVSV
For B1, in assay [2], the binding result is “binds”.
